{"source": "PubChem BioAssay AID192", "about": "(DTP/NCI, 2004)", "test_system": "BDF1 mice, B16 melanoma ip, median survival T/C", "assay": "NCI In Vivo Anticancer Drug Screen. Data for tumor model B16 Melanoma (intraperitoneal) in B6D2F1 (BDF1) mice", "details": "T/C endpoint: median survival time, higher T/C = longer survival", "experimental": "The antitumor activity of compounds was measured in mice bearing transplantable tumors. Survival or tumor size were measured and the results are expressed as the measurement made in the treated group (T) divided by the measurement made in the vehicle treated control group (C). The tumor model used in this assay is B16 Melanoma (intraperitoneal) in B6D2F1 (BDF1) mice", "key": {"[1]": {"details": "dose: 400.0 mg/kg/injection, schedule: Q01DX009 (ip), vehicle: Klucel (hydroxypropylcellulose) (HPC)"}, "[2]": {"details": "dose: 200.0 mg/kg/injection, schedule: Q01DX009 (ip), vehicle: Klucel (hydroxypropylcellulose) (HPC)"}, "[3]": {"details": "dose: 200.0 mg/kg/injection, schedule: Q04DX003 (ip), vehicle: saline with Tween-80"}, "[4]": {"details": "dose: 200.0 mg/kg/injection, schedule: Q01DX009 (ip), vehicle: saline with Tween-80"}, "[5]": {"details": "dose: 50.0 mg/kg/injection, schedule: Q01DX009 (ip), vehicle: saline with Tween-80"}, "[6]": {"details": "dose: 100.0 mg/kg/injection, schedule: Q01DX009 (ip), vehicle: saline with Tween-80"}}, "note": "The list shows only some results of the screen, not a fair sample: it gathers tests that were run many times, whatever their T/C, doses with no T/C, and many T/C values between a quarter and a half above the control. Other doses and runs of a compound stand elsewhere. T/C gives the treated animals as a percentage of the vehicle group. Some entries give survivors of the animals treated and no T/C: the source holds a T/C of zero for them, seemingly a mark for toxic or unscored doses. Some doses without a T/C left all or most animals alive at the check, yet need not have been tolerated: survival well below the control is almost never listed, so the zero probably covers shortened survival too. Counts of survivors are from the toxicity check (mostly the fifth day) where no day follows; animals may have died later. Schedules are NCI's codes, read here as Q, the interval in days (D) or hours (H), X, the number of doses. For survival time, this PubChem deposit counts one and a half times the control or more as active, and values a quarter to a half above the control carry no call in these data; other NCI protocols may use other cut-offs. Some T/C values carry the count of animals alive at the toxicity check (mostly the fifth day); without a count, all were alive then.", "data": [{"compound": "O=C1CC2(C(=O)N1CN1CCCCC1)c1ccccc1-c1ccccc12", "values": [{"measurement": "survivor count", "setting": "[1]", "value": "10 of 10"}]}, {"compound": "C=C1N(C)c2ccc(Cl)cc2C1(C)C", "values": [{"measurement": "survivor count", "setting": "[2]", "value": "8 of 10"}]}, {"compound": "O=C1C=C(N2CC2)c2ccccc2C1=O", "values": [{"measurement": "survivor count", "setting": "dose: 20.0 mg/kg/injection, schedule: Q01DX009 (ip), vehicle: saline with Tween-80", "value": "4 of 6"}, {"measurement": "survivor count", "setting": "dose: 40.0 mg/kg/injection, schedule: Q01DX009 (ip), vehicle: saline with Tween-80", "value": "0 of 6"}]}, {"compound": "CC12NC(=O)NC1(C)NC(=O)N2", "note": "(stereo unspecified)", "values": [{"measurement": "survivor count", "setting": "[3]", "value": "9 of 10"}, {"measurement": "survivor count", "setting": "dose: 400.0 mg/kg/injection, schedule: Q04DX003 (ip), vehicle: saline with Tween-80", "value": "6 of 10"}]}, {"compound": "CN(C)S(=O)(=O)c1ccc2c(c1)N(CCCN1CCN(S(C)(=O)=O)CC1)c1ccccc1S2", "values": [{"measurement": "survivor count", "setting": "dose: 6.25 mg/kg/injection, schedule: Q01DX009 (ip), vehicle: Klucel (hydroxypropylcellulose) (HPC)", "value": "10 of 10"}, {"measurement": "survivor count", "setting": "dose: 25.0 mg/kg/injection, schedule: Q01DX009 (ip), vehicle: Klucel (hydroxypropylcellulose) (HPC)", "value": "10 of 10"}, {"measurement": "survivor count", "setting": "dose: 50.0 mg/kg/injection, schedule: Q01DX009 (ip), vehicle: Klucel (hydroxypropylcellulose) (HPC)", "value": "10 of 10"}, {"measurement": "survivor count", "setting": "dose: 100.0 mg/kg/injection, schedule: Q01DX009 (ip), vehicle: Klucel (hydroxypropylcellulose) (HPC)", "value": "10 of 10"}, {"measurement": "survivor count", "setting": "[2]", "value": "10 of 10"}, {"measurement": "survivor count", "setting": "[1]", "value": "9 of 10"}]}, {"compound": "C[C@@H]1CC2=CC(=O)CC[C@@H]2[C@H]2CC[C@@]3(C)[C@@H](CC[C@]3(C)O)[C@@H]21", "values": [{"measurement": "survivor count", "setting": "[4]", "value": "6 of 6"}]}, {"compound": "O=C(NCCO)Nc1ccc(Cl)c(Cl)c1", "values": [{"measurement": "survivor count", "setting": "dose: 135.0 mg/kg/injection, schedule: Q01DX009 (ip), vehicle: other", "value": "10 of 10"}, {"measurement": "T/C", "setting": "dose: 200.0 mg/kg/injection, schedule: Q01DX009 (ip), vehicle: other", "value": "142 % of control"}]}, {"compound": "O=Nc1ccc2cc(O)ccc2c1O", "values": [{"measurement": "survivor count", "setting": "dose: 3.12 mg/kg/injection, schedule: Q01DX009 (ip), vehicle: Klucel (hydroxypropylcellulose) (HPC)", "value": "10 of 10"}, {"measurement": "survivor count", "setting": "dose: 18.0 mg/kg/injection, schedule: Q01DX009 (ip), vehicle: Klucel (hydroxypropylcellulose) (HPC)", "value": "9 of 10"}, {"measurement": "survivor count", "setting": "dose: 28.0 mg/kg/injection, schedule: Q01DX009 (ip), vehicle: Klucel (hydroxypropylcellulose) (HPC)", "value": "10 of 10"}, {"measurement": "survivor count", "setting": "dose: 40.0 mg/kg/injection, schedule: Q01DX009 (ip), vehicle: Klucel (hydroxypropylcellulose) (HPC)", "value": "1 of 10"}]}, {"compound": "C1CN2CCC1CC2", "values": [{"measurement": "survivor count", "setting": "dose: 25.0 mg/kg/injection, schedule: Q01DX009 (ip), vehicle: saline with Tween-80", "value": "0 of 10"}, {"measurement": "survivor count", "setting": "[5]", "value": "10 of 10"}, {"measurement": "survivor count", "setting": "[6]", "value": "3 of 10"}, {"measurement": "survivor count", "setting": "[4]", "value": "0 of 10"}]}, {"compound": "O=c1[nH]cc(F)c(=O)[nH]1.[Tl]", "values": [{"measurement": "survivor count", "setting": "dose: 12.5 mg/kg/injection, schedule: Q01DX009 (ip), vehicle: water", "value": "10 of 10"}, {"measurement": "survivor count", "setting": "dose: 25.0 mg/kg/injection, schedule: Q01DX009 (ip), vehicle: water", "value": "6 of 10"}, {"measurement": "survivor count", "setting": "dose: 50.0 mg/kg/injection, schedule: Q01DX009 (ip), vehicle: water", "value": "1 of 10"}, {"measurement": "survivor count", "setting": "dose: 100.0 mg/kg/injection, schedule: Q01DX009 (ip), vehicle: water", "value": "0 of 10"}]}, {"compound": "ClC1=C(Cl)C2(Cl)C3C(Cl)C(Cl)CC3C1(Cl)C2(Cl)Cl", "note": "(stereo unspecified)", "values": [{"measurement": "survivor count", "setting": "[5]", "value": "7 of 10"}, {"measurement": "survivor count", "setting": "[6]", "value": "9 of 10"}, {"measurement": "survivor count", "setting": "[4]", "value": "3 of 10"}]}, {"compound": "C#CCN(C)Cc1ccccc1", "values": [{"measurement": "survivor count", "setting": "dose: 100.0 mg/kg/injection, schedule: Q01DX009 (ip), vehicle: saline", "value": "10 of 10"}, {"measurement": "survivor count", "setting": "dose: 200.0 mg/kg/injection, schedule: Q01DX009 (ip), vehicle: saline", "value": "9 of 10"}]}, {"compound": "C1=CC2C=CC12", "note": "(stereo unspecified)", "values": [{"measurement": "survivor count", "setting": "[3]", "value": "10 of 10"}]}, {"compound": "CCCCCCCCCNC(=O)Nc1cccc(Cl)c1C", "values": [{"measurement": "survivor count", "setting": "[4]", "value": "10 of 10"}]}, {"compound": "Nc1ncnc2c1ccn2C1OC2COP(=O)(O)OC2C1O", "note": "(stereo unspecified)", "values": [{"measurement": "T/C", "setting": "dose: 2.0 mg/kg/injection, schedule: Q01DX009 (ip), vehicle: saline", "value": "138 % of control [5 of 6 alive]"}, {"measurement": "survivor count", "setting": "dose: 8.0 mg/kg/injection, schedule: Q01DX009 (ip), vehicle: saline", "value": "4 of 6"}]}]}
